Results on 3 substances are retold here after article PMC13284713.

Protein sequences, listed by entry. Tags and fused reporters are not part of them.
UniProt Q13547: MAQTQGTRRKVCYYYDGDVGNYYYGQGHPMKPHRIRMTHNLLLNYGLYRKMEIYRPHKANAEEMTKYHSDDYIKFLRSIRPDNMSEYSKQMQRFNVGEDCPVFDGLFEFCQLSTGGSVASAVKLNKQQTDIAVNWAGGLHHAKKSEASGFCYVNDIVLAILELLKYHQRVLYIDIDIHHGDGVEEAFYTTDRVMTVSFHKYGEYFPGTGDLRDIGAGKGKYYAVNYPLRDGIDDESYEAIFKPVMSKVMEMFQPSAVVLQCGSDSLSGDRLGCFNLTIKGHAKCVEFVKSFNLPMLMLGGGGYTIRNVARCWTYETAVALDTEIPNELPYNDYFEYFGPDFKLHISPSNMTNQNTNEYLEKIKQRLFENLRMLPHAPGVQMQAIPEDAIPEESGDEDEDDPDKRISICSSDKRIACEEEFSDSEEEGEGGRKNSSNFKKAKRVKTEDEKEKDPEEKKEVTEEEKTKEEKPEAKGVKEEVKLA
UniProt Q92769: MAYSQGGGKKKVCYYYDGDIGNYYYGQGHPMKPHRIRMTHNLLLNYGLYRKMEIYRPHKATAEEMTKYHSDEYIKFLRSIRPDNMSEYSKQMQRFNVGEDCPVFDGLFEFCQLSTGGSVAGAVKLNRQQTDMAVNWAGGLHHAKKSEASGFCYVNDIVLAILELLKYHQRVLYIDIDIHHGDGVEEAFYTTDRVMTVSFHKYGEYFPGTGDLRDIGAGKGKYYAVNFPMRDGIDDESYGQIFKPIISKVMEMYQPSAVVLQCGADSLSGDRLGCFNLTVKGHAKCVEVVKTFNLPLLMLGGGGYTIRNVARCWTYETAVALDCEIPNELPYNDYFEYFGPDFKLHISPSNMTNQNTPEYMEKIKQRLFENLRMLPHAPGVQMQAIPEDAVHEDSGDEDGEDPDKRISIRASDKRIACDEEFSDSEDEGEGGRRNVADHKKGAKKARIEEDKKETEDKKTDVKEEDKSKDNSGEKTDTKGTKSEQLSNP
UniProt O75151: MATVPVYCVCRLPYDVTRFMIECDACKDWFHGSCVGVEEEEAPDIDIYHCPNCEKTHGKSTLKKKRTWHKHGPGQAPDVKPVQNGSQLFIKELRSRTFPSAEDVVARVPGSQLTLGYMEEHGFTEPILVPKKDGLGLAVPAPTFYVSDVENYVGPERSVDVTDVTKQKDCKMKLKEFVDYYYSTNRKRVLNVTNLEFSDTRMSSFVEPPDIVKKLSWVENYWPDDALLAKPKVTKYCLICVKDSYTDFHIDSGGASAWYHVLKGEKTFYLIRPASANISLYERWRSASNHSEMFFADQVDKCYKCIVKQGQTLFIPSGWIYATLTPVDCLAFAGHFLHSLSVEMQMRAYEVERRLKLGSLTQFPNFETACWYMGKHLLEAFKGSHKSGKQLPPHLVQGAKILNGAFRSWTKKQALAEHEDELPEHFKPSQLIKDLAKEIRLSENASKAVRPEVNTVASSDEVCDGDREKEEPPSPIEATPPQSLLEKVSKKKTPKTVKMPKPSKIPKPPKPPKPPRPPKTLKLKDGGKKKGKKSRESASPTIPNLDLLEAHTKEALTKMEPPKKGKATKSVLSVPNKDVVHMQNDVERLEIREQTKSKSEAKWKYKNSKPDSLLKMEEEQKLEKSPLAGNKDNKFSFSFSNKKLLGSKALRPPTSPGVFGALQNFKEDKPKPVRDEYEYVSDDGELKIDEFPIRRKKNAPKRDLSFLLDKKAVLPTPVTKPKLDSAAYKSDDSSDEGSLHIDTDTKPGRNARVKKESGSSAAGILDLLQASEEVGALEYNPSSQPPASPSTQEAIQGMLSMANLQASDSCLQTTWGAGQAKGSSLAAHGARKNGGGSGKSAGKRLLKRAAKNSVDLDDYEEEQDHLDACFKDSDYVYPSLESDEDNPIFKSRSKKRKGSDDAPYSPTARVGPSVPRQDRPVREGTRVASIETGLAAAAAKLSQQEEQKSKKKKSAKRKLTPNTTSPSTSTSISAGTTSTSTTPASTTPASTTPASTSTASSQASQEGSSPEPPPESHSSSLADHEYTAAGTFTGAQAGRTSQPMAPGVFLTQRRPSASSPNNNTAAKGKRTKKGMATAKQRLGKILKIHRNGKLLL

No constants are given. Whether binding was seen depends on the method and setting. Binding seen in cells or lysates may run through a third protein. A yes stands for co-enrichment or nearness to the bait. Other partners may have been found. No binding means not detected with the bait. Sequences can lack the tags named with a protein.

The assay deals with T1, FLAG-AviTag-tagged murine ARID5B (long isoform) (murine) (UniProt Q8BM75).
T1 sequence (chain, biotin on the AviTag (by BirA)): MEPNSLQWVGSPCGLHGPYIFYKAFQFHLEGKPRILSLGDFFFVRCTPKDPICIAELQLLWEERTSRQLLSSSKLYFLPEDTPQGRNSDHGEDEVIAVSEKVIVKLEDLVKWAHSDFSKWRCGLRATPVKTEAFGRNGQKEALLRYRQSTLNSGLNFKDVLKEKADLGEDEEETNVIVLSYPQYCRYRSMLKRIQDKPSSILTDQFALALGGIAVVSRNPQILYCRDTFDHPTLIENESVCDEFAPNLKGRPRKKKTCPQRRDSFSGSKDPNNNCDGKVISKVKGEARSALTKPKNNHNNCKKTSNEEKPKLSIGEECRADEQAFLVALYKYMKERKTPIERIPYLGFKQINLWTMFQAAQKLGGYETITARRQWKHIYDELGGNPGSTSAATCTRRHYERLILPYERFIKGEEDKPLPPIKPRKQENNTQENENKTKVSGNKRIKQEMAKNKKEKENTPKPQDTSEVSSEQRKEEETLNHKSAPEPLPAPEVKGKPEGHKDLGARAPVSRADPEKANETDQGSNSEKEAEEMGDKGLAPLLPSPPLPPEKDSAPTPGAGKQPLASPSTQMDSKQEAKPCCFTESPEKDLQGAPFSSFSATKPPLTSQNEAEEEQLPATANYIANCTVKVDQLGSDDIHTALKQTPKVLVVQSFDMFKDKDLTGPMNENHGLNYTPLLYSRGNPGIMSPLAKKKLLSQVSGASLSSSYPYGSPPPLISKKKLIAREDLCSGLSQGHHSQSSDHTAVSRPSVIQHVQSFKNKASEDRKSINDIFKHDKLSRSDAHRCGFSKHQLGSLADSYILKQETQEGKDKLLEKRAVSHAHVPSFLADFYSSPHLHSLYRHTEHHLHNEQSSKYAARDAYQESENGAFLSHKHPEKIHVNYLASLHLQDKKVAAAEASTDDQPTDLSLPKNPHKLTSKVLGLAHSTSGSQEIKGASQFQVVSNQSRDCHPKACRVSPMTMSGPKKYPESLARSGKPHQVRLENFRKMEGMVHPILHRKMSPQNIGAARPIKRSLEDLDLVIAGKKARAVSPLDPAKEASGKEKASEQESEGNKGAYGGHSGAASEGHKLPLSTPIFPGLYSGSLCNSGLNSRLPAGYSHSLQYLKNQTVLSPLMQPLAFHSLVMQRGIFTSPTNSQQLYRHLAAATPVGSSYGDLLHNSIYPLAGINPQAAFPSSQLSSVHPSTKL
Briefly: affinity purification with mass spectrometry; biotinylated FLAG-AviTag ARID5B captured on streptavidin beads from 5 mg HEK293T nuclear extract; IP350 buffer (20 mM Tris-HCl pH 7.5, 0.3% NP-40, 350 mM NaCl), overnight at 4°C; control: cells expressing BirA only; n = 3.
For “HDAC1 (from UniProt Q13547 1-482) (enzyme)”, the binding entry was “binds”.
In the case of “HDAC2 (from UniProt Q92769 1-488) (enzyme)”, the binding result is recorded as “binds”.
For “PHF2 (from UniProt O75151 1-1096) (enzyme)”, the binding entry was “no binding”.
